Results reported in publication PMC4288368.
Results are given in words; binding and its absence hold for the method and conditions named. In cells and extracts the contact can be indirect. Some results given as binding are weak or reduced against the parent protein; the word gives no strength.

By UniProt entry, the sequences of proteins in these tests, tags left out.
UniProt Q00610: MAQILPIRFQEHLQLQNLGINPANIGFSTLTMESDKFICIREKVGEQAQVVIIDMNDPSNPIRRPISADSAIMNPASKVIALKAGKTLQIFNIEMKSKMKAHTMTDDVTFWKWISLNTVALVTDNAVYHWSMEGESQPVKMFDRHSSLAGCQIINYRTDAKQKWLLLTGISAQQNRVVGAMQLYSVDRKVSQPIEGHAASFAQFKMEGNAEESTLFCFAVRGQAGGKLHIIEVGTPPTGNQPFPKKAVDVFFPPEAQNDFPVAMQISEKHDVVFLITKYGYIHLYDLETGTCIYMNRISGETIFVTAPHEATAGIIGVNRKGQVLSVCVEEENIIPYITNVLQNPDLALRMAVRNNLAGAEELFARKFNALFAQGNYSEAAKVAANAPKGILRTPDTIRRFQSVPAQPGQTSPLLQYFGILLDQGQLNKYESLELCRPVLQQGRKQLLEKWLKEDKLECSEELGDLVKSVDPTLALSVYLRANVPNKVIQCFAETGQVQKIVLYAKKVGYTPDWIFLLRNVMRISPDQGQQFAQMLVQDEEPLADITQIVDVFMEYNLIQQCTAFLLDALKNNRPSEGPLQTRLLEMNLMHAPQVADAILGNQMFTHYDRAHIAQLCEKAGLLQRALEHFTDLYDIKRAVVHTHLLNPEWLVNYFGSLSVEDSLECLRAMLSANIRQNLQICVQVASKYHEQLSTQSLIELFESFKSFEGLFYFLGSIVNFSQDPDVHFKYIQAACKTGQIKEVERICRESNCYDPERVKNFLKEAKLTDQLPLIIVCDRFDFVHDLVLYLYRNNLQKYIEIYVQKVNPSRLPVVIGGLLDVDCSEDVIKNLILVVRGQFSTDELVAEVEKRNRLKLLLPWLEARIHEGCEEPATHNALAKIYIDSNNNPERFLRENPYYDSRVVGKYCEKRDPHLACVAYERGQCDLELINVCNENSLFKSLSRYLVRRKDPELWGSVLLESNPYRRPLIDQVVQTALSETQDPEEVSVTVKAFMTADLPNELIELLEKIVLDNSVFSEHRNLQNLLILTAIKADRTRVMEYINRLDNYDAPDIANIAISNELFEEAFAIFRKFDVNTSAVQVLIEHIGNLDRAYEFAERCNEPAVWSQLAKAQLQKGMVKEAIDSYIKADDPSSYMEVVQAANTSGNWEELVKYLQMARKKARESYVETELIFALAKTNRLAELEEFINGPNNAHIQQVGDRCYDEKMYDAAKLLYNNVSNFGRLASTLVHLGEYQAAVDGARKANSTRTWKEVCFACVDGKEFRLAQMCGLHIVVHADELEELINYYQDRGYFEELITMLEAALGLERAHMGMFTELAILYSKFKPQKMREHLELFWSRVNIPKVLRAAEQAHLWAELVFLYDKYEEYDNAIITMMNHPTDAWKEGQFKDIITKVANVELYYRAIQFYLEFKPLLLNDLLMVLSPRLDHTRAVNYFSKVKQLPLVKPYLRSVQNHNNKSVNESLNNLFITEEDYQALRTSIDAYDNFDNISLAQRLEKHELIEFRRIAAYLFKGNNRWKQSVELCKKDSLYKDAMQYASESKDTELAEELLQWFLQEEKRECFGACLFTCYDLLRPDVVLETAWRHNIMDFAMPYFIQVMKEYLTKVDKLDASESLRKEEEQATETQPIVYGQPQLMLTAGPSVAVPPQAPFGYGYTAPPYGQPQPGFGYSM
UniProt O95377: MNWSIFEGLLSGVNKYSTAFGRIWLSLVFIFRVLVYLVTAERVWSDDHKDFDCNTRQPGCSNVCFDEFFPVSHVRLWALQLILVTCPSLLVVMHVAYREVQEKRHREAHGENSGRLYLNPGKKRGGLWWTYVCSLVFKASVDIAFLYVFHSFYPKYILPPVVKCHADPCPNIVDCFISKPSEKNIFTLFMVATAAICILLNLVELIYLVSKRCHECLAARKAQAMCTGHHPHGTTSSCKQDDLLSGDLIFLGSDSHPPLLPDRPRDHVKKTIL

What was measured:
[1] = target: clathrin heavy chain (human (endogenous in H1299)) (UniProt Q00610); assay: co-IP; lysates of Cx31.1-EGFP-H1299 cells or H1299 cells stably expressing EGFP; immunoprecipitated with anti-GFP and blotted for clathrin heavy chain, and reciprocally immunoprecipitated with anti-clathrin heavy chain and blotted for GFP; buffer 50 mM Tris-HCl pH 7.4, 150 mM NaCl, 1% NP-40, 0.25% sodium deoxycholate, 1 mM EDTA; 4°C
[2] = target: Connexin 31.1-EGFP (UniProt O95377); assay: as above

Row | binding [1] | binding [2] | Substance
1 | binds | – | Connexin 31.1-EGFP (from UniProt O95377 1-273)
2 | – | binds | clathrin heavy chain (from UniProt Q00610 1-1675)
